In patent US7354739B2, “TML polynucleotides” (ZymoGenetics, Inc., priority 1997, dated 2008):
At least one structure is not confirmed: it was looked up by name or label, or the drawing left a doubt.

Test system: antral portion of the stomach
Test: Antral stomach contractions monitored by transducing crystals in anesthetized rats
Type: in vivo, Sprague-Dawley rats
Conditions: 10 μl of 1 μM applied topically to the stomach between the crystals
Excerpt: Two male Sprague-Dawley rats, approximately 12 weeks old (Harlan, Indianapolis, Ind.) were anesthetized with urethane and their stomachs were exposed through a small abdominal incision. Two 2.4 mm transducing crystals (Sonometrics, Ontario, Canada) were placed on the antral portion of the stomach such that circular contractions could be monitored as a change in the distance between the two crystals. The crystals were attached with VETBOND TISSUE ADHESIVE (3M, St. Paul, Minn.).
The amplitude of the NE-induced decrease was approximately 50% of the acetylcholine-induced increase in distance. Both responses were transient.
A negative control of 10 μl of phosphate buffer solution (PBS) applied topically between the crystals had no effect.
A 14 amino acid zsig33 peptide (from amino acid residue 24 (Gly) to amino acid residue 37 (Gln) of SEQ ID NO: 2) was dissolved in PBS) and 10 μl was applied topically for a final concentration of 1 μg, […]

CC(=O)OCC[N+](C)(C)C [acetylcholine]
change in the distance between the two crystals: rapid, but transient increase in the distance between two crystals
